Experimental data: PubChem BioAssay AID1224830 (NIAID, 2016)

Test: 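Regulators of TLR4 signalling towards TNF-alpha in macrophage-like cells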 (primary screen)
Cell system: human THP-1 monocytic leukaemia cells, TNF dual-luciferase reporter clone, PMA-differentiated to macrophage-like cells
Knock-down reagent: siRNA pool against human genes, 50 nM
Time to read-out: LPS for 4 h, given about 3 days after siRNA transfection
Conditions: bacterial LPS (TLR4 ligand), 10 ng/ml
Read-out: 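TNF firefly reporter luminescence divided by renilla, normalised to the plate median, then turned into a robust z-score for each replicate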
Scale: TNF reporter robust z-score: higher = stronger TNF reporter response to LPS
Active means: 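Each well counts as active if its z-score is over 2.8 or under -1.5; controls are left without a call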
The deposit covers about 18,000 reagents; this is a random part of them. About 2,900 of all reagents (16%) count as active. 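Calls are made per well; low scores hint the gene aids the LPS response, high scores that it dampens it.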 A number with no mark means an inactive call. Repeated entries: four replicate wells of each siRNA pool.

{"Target gene": "RPRML (reprimo like)", "TNF reporter robust z-score": -0.91}
{"Target gene": "RPRML (reprimo like)", "TNF reporter robust z-score": -1.22}
{"Target gene": "RPRML (reprimo like)", "TNF reporter robust z-score": -0.71}
{"Target gene": "RPRML (reprimo like)", "TNF reporter robust z-score": 0}
{"Target gene": "GABRP (gamma-aminobutyric acid type A receptor subunit pi)", "TNF reporter robust z-score": 0.33}
{"Target gene": "GABRP (gamma-aminobutyric acid type A receptor subunit pi)", "TNF reporter robust z-score": 0.21}
{"Target gene": "GABRP (gamma-aminobutyric acid type A receptor subunit pi)", "TNF reporter robust z-score": 0.37}
{"Target gene": "GABRP (gamma-aminobutyric acid type A receptor subunit pi)", "TNF reporter robust z-score": "3.08 (active)"}
{"Target gene": "LAMP2 (lysosome associated membrane protein 2)", "TNF reporter robust z-score": 0.05}
{"Target gene": "LAMP2 (lysosome associated membrane protein 2)", "TNF reporter robust z-score": 0.89}
{"Target gene": "LAMP2 (lysosome associated membrane protein 2)", "TNF reporter robust z-score": 0.58}
{"Target gene": "LAMP2 (lysosome associated membrane protein 2)", "TNF reporter robust z-score": 1.18}
{"Target gene": "BCL3 (BCL3 transcription coactivator)", "TNF reporter robust z-score": "-1.8 (active)"}
{"Target gene": "BCL3 (BCL3 transcription coactivator)", "TNF reporter robust z-score": -1.02}
{"Target gene": "BCL3 (BCL3 transcription coactivator)", "TNF reporter robust z-score": -1.28}
{"Target gene": "BCL3 (BCL3 transcription coactivator)", "TNF reporter robust z-score": -0.77}
{"Target gene": "TSN (translin)", "TNF reporter robust z-score": -0.65}
{"Target gene": "TSN (translin)", "TNF reporter robust z-score": -0.92}
{"Target gene": "TSN (translin)", "TNF reporter robust z-score": 0.34}
{"Target gene": "TSN (translin)", "TNF reporter robust z-score": -0.41}
{"Target gene": "SLC46A1", "TNF reporter robust z-score": -0.95}
{"Target gene": "SLC46A1", "TNF reporter robust z-score": -0.02}
{"Target gene": "SLC46A1", "TNF reporter robust z-score": -1.14}
{"Target gene": "SLC46A1", "TNF reporter robust z-score": 1.28}
{"Target gene": "SH3KBP1 (SH3 domain containing kinase binding protein 1)", "TNF reporter robust z-score": -0.19}
{"Target gene": "SH3KBP1 (SH3 domain containing kinase binding protein 1)", "TNF reporter robust z-score": 0.51}
{"Target gene": "SH3KBP1 (SH3 domain containing kinase binding protein 1)", "TNF reporter robust z-score": -1.26}
{"Target gene": "SH3KBP1 (SH3 domain containing kinase binding protein 1)", "TNF reporter robust z-score": -0.91}
{"Target gene": "UTRN (utrophin)", "TNF reporter robust z-score": -0.42}
{"Target gene": "UTRN (utrophin)", "TNF reporter robust z-score": -0.16}
{"Target gene": "UTRN (utrophin)", "TNF reporter robust z-score": 0.96}
{"Target gene": "UTRN (utrophin)", "TNF reporter robust z-score": -0.48}

Already shown: 3 of the entries above.
{"Target gene": "TSN (translin)", "TNF reporter robust z-score": -0.92}
{"Target gene": "TSN (translin)", "TNF reporter robust z-score": 0.34}
{"Target gene": "TSN (translin)", "TNF reporter robust z-score": -0.41}

Further results follow:
{"Target gene": "NMBR (neuromedin B receptor)", "TNF reporter robust z-score": -0.36}
{"Target gene": "NMBR (neuromedin B receptor)", "TNF reporter robust z-score": 0.05}
{"Target gene": "NMBR (neuromedin B receptor)", "TNF reporter robust z-score": -0.1}
{"Target gene": "NMBR (neuromedin B receptor)", "TNF reporter robust z-score": -0.04}
{"Target gene": "ACKR1 (atypical chemokine receptor 1 (Duffy blood group))", "TNF reporter robust z-score": -0.67}
{"Target gene": "ACKR1 (atypical chemokine receptor 1 (Duffy blood group))", "TNF reporter robust z-score": 0.55}
{"Target gene": "ACKR1 (atypical chemokine receptor 1 (Duffy blood group))", "TNF reporter robust z-score": -0.52}
{"Target gene": "ACKR1 (atypical chemokine receptor 1 (Duffy blood group))", "TNF reporter robust z-score": 1.02}
{"Target gene": "ZNF830 (zinc finger protein 830)", "TNF reporter robust z-score": 0.67}
{"Target gene": "ZNF830 (zinc finger protein 830)", "TNF reporter robust z-score": 1.51}
{"Target gene": "ZNF830 (zinc finger protein 830)", "TNF reporter robust z-score": 1.43}
{"Target gene": "ZNF830 (zinc finger protein 830)", "TNF reporter robust z-score": -0.19}
{"Target gene": "STON1-GTF2A1L (STON1-GTF2A1L readthrough)", "TNF reporter robust z-score": -0.97}
{"Target gene": "STON1-GTF2A1L (STON1-GTF2A1L readthrough)", "TNF reporter robust z-score": -0.8}
{"Target gene": "STON1-GTF2A1L (STON1-GTF2A1L readthrough)", "TNF reporter robust z-score": 0.13}
{"Target gene": "STON1-GTF2A1L (STON1-GTF2A1L readthrough)", "TNF reporter robust z-score": -0.91}
